# Source: the supplement of paper PMC4962491
# Structures can show the parent of a compound that is named as a salt. ± gives the standard deviation of the averaged measurements. The entries are a selection whose mix differs from that of the whole data set. Most values lie within the scatter of the assay; repeated measurements hardly agree. Numbered stars: 1 amine (or outer) side, 2 acyl side, 3 side chain; on linkers, the order of the positions; unused ones are H or OH. Bridge positions count the residues as written; N and C are the ends. Square brackets hold non-standard residues; d marks the D form. Peptide text beside a SMILES is read from it. * marks the point of attachment. X1 = NC1=N[C@@H]([C@H](N[*:1])C(=O)[*:2])C[C@H](O)N1; ΔAla(Z-3-ureido) = NC(=O)N/C=C(\N)C(=O)O; β3hOrn = NCCC[C@H](N)CC(=O)*; Dap = NC[C@H](N)C(=O)O
# System: FaDu
# Experiment: mitochondrial oxygen consumption rate normalised to cell number, Z score over the library; higher = higher oxygen consumption (negative = OCR reduction)
# Conditions: treatment time 24 h, assay medium: 5 mM galactose, 5 mM pyruvate, 4 mM glutamine
# Description: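 Primary screen: FaDu cells were incubated 24 h with Pharmakon 1600 / TDI oncology set compounds at 2 or 10 uM. Mitochondrial-specific OCR (basal minus 2 uM antimycin A) was measured on a Seahorse XF96 in assay medium with 5 mM galactose, 5 mM pyruvate and 4 mM glutamine, then corrected for Hoechst cell number and expressed as a Z score […]. Compounds that cut cell number by >66% were excluded. Two repeats.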
structure (smiles),measurement,setting,value
Nc1nc2[nH]cc(CCc3ccc(C(=O)N[C@@H](CCC(=O)O)C(=O)O)cc3)c2c(=O)[nH]1 [Pemetrexed Disodium],mitochondrial oxygen consumption rate normalised,2 µM,3.47 ± 0.091
Nc1nc2[nH]cc(CCc3ccc(C(=O)N[C@@H](CCC(=O)O)C(=O)O)cc3)c2c(=O)[nH]1,mitochondrial oxygen consumption rate normalised,2 µM,1.43 ± 0.64
CC(C)(C)NC[C@H](O)COc1ccccc1C1CCCC1,mitochondrial oxygen consumption rate normalised,2 µM,-0.562 ± 0.94
COc1ccc(C(=O)c2ccccc2O)c(O)c1,mitochondrial oxygen consumption rate normalised,2 µM,-0.212 ± 1.1
COc1cc2ncnc(Nc3ccc(F)c(Cl)c3)c2cc1OCCCN1CCOCC1 [Gefitinib],mitochondrial oxygen consumption rate normalised,2 µM,0.667 ± 0.083
CCOc1ccc(NC(C)=O)cc1,mitochondrial oxygen consumption rate normalised,2 µM,1.14 ± 0.2
CN1CCC[C@@H]1CCO[C@](C)(c1ccccc1)c1ccc(Cl)cc1,mitochondrial oxygen consumption rate normalised,2 µM,0.118 ± 0.66
O=C(O)c1ccccc1,mitochondrial oxygen consumption rate normalised,2 µM,-0.0241 ± 0.24
CC(C)(C)CC(=O)OCC(=O)[C@@]1(O)CC[C@H]2[C@@H]3CCC4=CC(=O)C=C[C@]4(C)[C@H]3[C@@H](O)C[C@@]21C,mitochondrial oxygen consumption rate normalised,2 µM,0.74 ± 0.54
same,mitochondrial oxygen consumption rate normalised,10 µM,-0.63 ± 0.68
CC(=O)Nc1ccc(C(=O)O)cc1,mitochondrial oxygen consumption rate normalised,2 µM,-0.295 ± 0.4
CC/C(=C(\c1ccccc1)c1ccc(OCCN(C)C)cc1)c1ccccc1,mitochondrial oxygen consumption rate normalised,2 µM,-1.048 ± 0.0076
CC/C(=C(\c1ccccc1)c1ccc(OCCN(C)C)cc1)c1ccccc1 [Tamoxifen Citrate],mitochondrial oxygen consumption rate normalised,2 µM,0.936 ± 0.59
CCc1oc2ccccc2c1C(=O)c1cc(Br)c(O)c(Br)c1,mitochondrial oxygen consumption rate normalised,2 µM,0.521 ± 1.2
NCc1ccc(S(N)(=O)=O)cc1,mitochondrial oxygen consumption rate normalised,2 µM,0.532 ± 0.2
CN[C@@H]1[C@H](O[C@H]2[C@H](O[C@H]3[C@H](O)[C@@H](O)[C@H](NC(=N)N)[C@@H](O)[C@@H]3NC(=N)N)O[C@@H](C)[C@]2(O)CO)O[C@@H](CO)[C@H](O)[C@H]1O,mitochondrial oxygen consumption rate normalised,2 µM,0.414 ± 1.3
CCOC(=O)[N-]c1c[n+](N2CCOCC2)no1,mitochondrial oxygen consumption rate normalised,2 µM,-0.393 ± 1.1
CC[N+](CC)(CC)CCOc1cccc(OCC[N+](CC)(CC)CC)c1OCC[N+](CC)(CC)CC,mitochondrial oxygen consumption rate normalised,2 µM,-0.836 ± 0.25
CC(C)(C)NCC(O)c1cc(O)cc(O)c1 (stereo not drawn),mitochondrial oxygen consumption rate normalised,2 µM,-0.72 ± 0.075
C#C[C@]1(O)CC[C@H]2[C@@H]3CCC4=C(CCC(=O)C4)[C@H]3CC[C@@]21C,mitochondrial oxygen consumption rate normalised,2 µM,0.0166 ± 0.24
Cc1cc2nc3c(=O)[nH]c(=O)nc-3n(CC(O)C(O)C(O)COP(=O)(O)O)c2cc1C (stereo not drawn),mitochondrial oxygen consumption rate normalised,2 µM,0.0399 ± 1.8
O=C(O)CSCC(=O)NC1CCSC1=O (stereo not drawn),mitochondrial oxygen consumption rate normalised,2 µM,0.505 ± 0.68
NCC[C@H](O)C(=O)N[C@@H]1C[C@H](N)[C@@H](O[C@H]2O[C@H](CN)[C@@H](O)[C@H](O)[C@H]2O)[C@H](O)[C@H]1O[C@H]1O[C@H](CO)[C@@H](O)[C@H](N)[C@H]1O,mitochondrial oxygen consumption rate normalised,2 µM,0.48 ± 0.86
NCCC[C@H](N)CC(=O)N[C@H]1CNC(=O)[C@H]([C@H]2C[C@H](O)NC(N)=N2)NC(=O)/C(=C/NC(N)=O)NC(=O)[C@H](CO)NC(=O)[C@H](CO)NC1=O (β3hOrn-[Dap]SS[ΔAla(Z-3-ureido)][X1]; lactam 1-C),mitochondrial oxygen consumption rate normalised,2 µM,0.286 ± 0.044
C[C@H]1COc2c(N3CCN(C)CC3)c(F)cc3c(=O)c(C(=O)O)cn1c23,mitochondrial oxygen consumption rate normalised,2 µM,-0.424 ± 0.51
CN(C)CCCN1c2ccccc2CCc2ccccc21,mitochondrial oxygen consumption rate normalised,2 µM,-1.25 ± 0.2
NC(CO)C(=O)NNCc1ccc(O)c(O)c1O (stereo not drawn),mitochondrial oxygen consumption rate normalised,2 µM,-0.338 ± 0.66
Fc1ccc([C@@H]2CCNC[C@H]2COc2ccc3c(c2)OCO3)cc1,mitochondrial oxygen consumption rate normalised,2 µM,0.699 ± 0.65
CN(C/C=C/C#CC(C)(C)C)Cc1cccc2ccccc12,mitochondrial oxygen consumption rate normalised,2 µM,-0.627 ± 0.35
C[N+](C)(C)CCO.[Cl-],mitochondrial oxygen consumption rate normalised,2 µM,-0.242 ± 0.44
O=C(Oc1cccc2cccnc12)c1ccccc1,mitochondrial oxygen consumption rate normalised,2 µM,-0.518 ± 1.2
CN1CCC(OC(c2ccccc2)c2ccccc2)CC1,mitochondrial oxygen consumption rate normalised,2 µM,-1.19 ± 0.65
COC(=O)C1=C(C)NC(C)=C(C(=O)OC(C)C)C1c1cccc2nonc12 (stereo not drawn),mitochondrial oxygen consumption rate normalised,2 µM,0.422 ± 0.51
CC(=O)SCC(Cc1ccccc1)C(=O)NCC(=O)OCc1ccccc1 (stereo not drawn),mitochondrial oxygen consumption rate normalised,2 µM,0.992 ± 1.2
CC1COc2c(N3CCN(C)CC3)c(F)cc3c(=O)c(C(=O)O)cn1c23 (stereo not drawn),mitochondrial oxygen consumption rate normalised,2 µM,1.27 ± 0.019
CN1CCN(c2cc3c(cc2F)c(=O)c(C(=O)O)cn3-c2ccc(F)cc2)CC1,mitochondrial oxygen consumption rate normalised,2 µM,-0.0387 ± 1.1
O=C(O)CCCC[C@@H]1SC[C@@H]2NC(=O)N[C@@H]21,mitochondrial oxygen consumption rate normalised,2 µM,0.535 ± 0.21
CC(C)C(=O)Nc1ccc([N+](=O)[O-])c(C(F)(F)F)c1,mitochondrial oxygen consumption rate normalised,2 µM,1.33 ± 0.8
Cn1cnc([N+](=O)[O-])c1Sc1ncnc2[nH]cnc12,mitochondrial oxygen consumption rate normalised,2 µM,-0.338 ± 0.14
CC(=O)Oc1cc2c(s1)CCN(C(C(=O)C1CC1)c1ccccc1F)C2 (stereo not drawn),mitochondrial oxygen consumption rate normalised,2 µM,0.0315 ± 0.58
OCCN1C[C@H](O)[C@@H](O)[C@H](O)[C@H]1CO,mitochondrial oxygen consumption rate normalised,2 µM,-0.643 ± 0.98
CC(=O)OCC[N+](C)(C)C,mitochondrial oxygen consumption rate normalised,2 µM,0.593 ± 0.51
CCN(CC)Cc1cc(Nc2ccnc3cc(Cl)ccc23)ccc1O,mitochondrial oxygen consumption rate normalised,2 µM,0.0326 ± 0.013
CCC(=O)OCC(=O)[C@@]1(OC(=O)CC)[C@@H](C)C[C@H]2[C@@H]3CCC4=CC(=O)C=C[C@]4(C)[C@@]3(Cl)[C@@H](O)C[C@@]21C,mitochondrial oxygen consumption rate normalised,2 µM,1.02 ± 0.77
OC[C@H]1O[C@@H](n2cnc3c2N=CNC[C@H]3O)C[C@@H]1O [Pentostatin],mitochondrial oxygen consumption rate normalised,2 µM,1.08 ± 0.14
same,mitochondrial oxygen consumption rate normalised,10 µM,0.38 ± 0.31
O=C(/C=C/C=C/c1ccc2c(c1)OCO2)N1CCCCC1,mitochondrial oxygen consumption rate normalised,2 µM,0.258 ± 0.35
COc1nc(N)nc2c1ncn2[C@@H]1O[C@H](CO)[C@@H](O)[C@@H]1O [Nelarabine],mitochondrial oxygen consumption rate normalised,2 µM,0.561 ± 0.51

# Shown bar-delimited: part of the list above.
structure (smiles) | measurement | setting | value
CC(C)(C)CC(=O)OCC(=O)[C@@]1(O)CC[C@H]2[C@@H]3CCC4=CC(=O)C=C[C@]4(C)[C@H]3[C@@H](O)C[C@@]21C | mitochondrial oxygen consumption rate normalised | 10 µM | -0.63 ± 0.68
CC(=O)Nc1ccc(C(=O)O)cc1 | mitochondrial oxygen consumption rate normalised | 2 µM | -0.295 ± 0.4
CC/C(=C(\c1ccccc1)c1ccc(OCCN(C)C)cc1)c1ccccc1 | mitochondrial oxygen consumption rate normalised | 2 µM | -1.048 ± 0.0076
